Laboratory results: PubChem BioAssay AID1508597 (Cure First, 2020)
Shown is an unselected part of the about 2,100 reagents, in one setting of the screen. 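Calls flag viability under 80% in either arm, not effects specific to rucaparib; the reference for percent is not stated.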 A number with no mark means an inactive call. Not stated in the record: the 100% reference.

Assay: 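Knock-downs altering ovarian cancer cell survival with or without PARP inhibitor rucaparib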 (primary screen)
System: human ovarian carcinoma lines grown from tumours: OCI-P5x (papillary serous) and OCI-C5x (clear cell)
Knock-down reagent: siRNA pool against human genes, 1.25 pmol siRNA per well
Timing: 72 h or 96 h, depending on the cell culture
Challenge: rucaparib 20 µM (about IC30) or vehicle, present until read-out
Rucaparib or vehicle: Vehicle
Cell line: OCI-C5x (clear cell)
Detection: 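ATP luminescence measured at 72 or 96 h according to the culture, then normalised and expressed as percent viability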
Direction: viability, normalised: higher = more viable cells remaining
Rule for the call: 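a well counts as a hit if its normalised viability is under 80 percent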
Calls: active = viability under 80%; inactive = viability 80% or more

PALS1, technical replicate 1 scored viability, normalised (%) = 70.1 (active).
For PALS1, technical replicate 2 the deposit lists viability, normalised (%) = 56.2 (active).
PALS1, technical replicate 3 gave viability, normalised (%) = 44.9 (active).
With CLDN17, technical replicate 1 the deposit lists viability, normalised (%) = 34.3 (active).
CLDN17, technical replicate 2 showed viability, normalised (%) = 35.7 (active).
CLDN17, technical replicate 3 showed viability, normalised (%) = 34 (active).
STK4, technical replicate 1 gave viability, normalised (%) = 52.1 (active).
For STK4, technical replicate 2 the deposit lists viability, normalised (%) = 59.8 (active).
STK4, technical replicate 3 showed viability, normalised (%) = 73.5 (active).
With MET, technical replicate 1, the values are viability, normalised (%) = 64.6 (active).
For MET, technical replicate 2 the deposit lists viability, normalised (%) = 63.5 (active).
With MET, technical replicate 3 the deposit lists viability, normalised (%) = 74.2 (active).
PLG, technical replicate 1 scored viability, normalised (%) = 44.2 (active).
PLG, technical replicate 2 scored viability, normalised (%) = 36.9 (active).
PLG, technical replicate 3 showed viability, normalised (%) = 48 (active).
BRSK2, technical replicate 1 gave viability, normalised (%) = 66.4 (active).
For BRSK2, technical replicate 2, the entry reads viability, normalised (%) = 48 (active).
For BRSK2, technical replicate 3, the values are viability, normalised (%) = 67.5 (active).
With TNRC6A, technical replicate 1, the entry reads viability, normalised (%) = 69.5 (active).
For TNRC6A, technical replicate 2, the values are viability, normalised (%) = 65.3 (active).
TNRC6A, technical replicate 3 gave viability, normalised (%) = 67.4 (active).
With HDAC6, technical replicate 1, the values are viability, normalised (%) = 56.8 (active).
HDAC6, technical replicate 2 gave viability, normalised (%) = 64 (active).
HDAC6, technical replicate 3 showed viability, normalised (%) = 51.5 (active).
SULF2, technical replicate 1 scored viability, normalised (%) = 63.2 (active).
For SULF2, technical replicate 2, the entry reads viability, normalised (%) = 60 (active).
With SULF2, technical replicate 3, the values are viability, normalised (%) = 51.9 (active).
For CAV2, technical replicate 1 the deposit lists viability, normalised (%) = 33.7 (active).
For CAV2, technical replicate 2, the values are viability, normalised (%) = 38.4 (active).
With CAV2, technical replicate 3 the deposit lists viability, normalised (%) = 41.9 (active).
With MUTYH, technical replicate 1 the deposit lists viability, normalised (%) = 49.9 (active).
With MUTYH, technical replicate 2, the entry reads viability, normalised (%) = 32.4 (active).
For MUTYH, technical replicate 3, the values are viability, normalised (%) = 33.6 (active).

2 of these entries, set out differently:
target gene | technical replicate | viability, normalised (%)
PALS1 | 3 | 44.9 (active)
CLDN17 | 1 | 34.3 (active)
